# Laboratory results as given in article PMC6925144, “A prospective compound screening contest identified broader inhibitors for Sirtuin 1” (Scientific Reports, 2019).
# By UniProt entry, the sequences of proteins in these tests, tags left out. Residues count along the entry.
# UniProt Q96EB6, 2-747 limits assumed: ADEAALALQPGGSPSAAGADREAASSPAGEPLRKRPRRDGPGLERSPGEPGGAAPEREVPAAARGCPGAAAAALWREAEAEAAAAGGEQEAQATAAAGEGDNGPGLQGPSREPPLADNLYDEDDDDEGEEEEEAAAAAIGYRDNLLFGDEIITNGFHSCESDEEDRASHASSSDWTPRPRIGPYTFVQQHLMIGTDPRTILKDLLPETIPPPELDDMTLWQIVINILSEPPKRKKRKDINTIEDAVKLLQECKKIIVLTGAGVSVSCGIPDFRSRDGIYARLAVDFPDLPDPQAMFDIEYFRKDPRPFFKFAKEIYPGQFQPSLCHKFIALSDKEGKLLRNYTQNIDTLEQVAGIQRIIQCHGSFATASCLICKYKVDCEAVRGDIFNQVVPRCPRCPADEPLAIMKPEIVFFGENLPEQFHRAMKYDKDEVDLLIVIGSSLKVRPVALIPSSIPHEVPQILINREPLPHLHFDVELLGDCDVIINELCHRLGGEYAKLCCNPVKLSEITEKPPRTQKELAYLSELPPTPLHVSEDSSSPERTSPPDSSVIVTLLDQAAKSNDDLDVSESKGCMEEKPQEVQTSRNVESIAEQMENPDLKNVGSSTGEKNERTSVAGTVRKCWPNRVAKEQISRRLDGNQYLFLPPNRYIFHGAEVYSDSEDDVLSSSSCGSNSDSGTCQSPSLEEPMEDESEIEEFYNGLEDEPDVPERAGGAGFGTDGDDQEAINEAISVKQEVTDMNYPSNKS
# Over roughly 3,200 compounds, “TSA(without NAD+) / Primary screening (TSA) / delta Tm (K)” has its median near -0.07; the highest 2% begin near 0.37. This is one part of the list.
# Biological target: NAD-dependent deacetylase Sirtuin 1 (human, UniProt Q96EB6)
# Assay: primary screen, delta tm
# Design: single well (n = 1)
# Conditions: 10 µM
# Outline: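 Thermal shift of Sirtuin 1 measured without NAD+, compound at 10 µM (n = 1); value is ΔTm, with hits defined as ΔTm > 0.45 K or < −1.5 K. Hits retested at 5, 10, 20 µM (n = 4) and counterscreened on bovine carbonic anhydrase and ABL1 SH2 domain.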
row,Structure (SMILES),TSA(without NAD+) / Primary screening (TSA) / delta Tm (K)
1,Cc1nn(C)c2nc(-c3ccccc3)cc(C(=O)N3CCN(Cc4ccccc4F)CC3)c12,-0.12 K
2,COc1ccnc(C(=O)NCC(C)(C)N2CCC(N(C)C)CC2)c1,-0.21 K
3,O=c1[nH]cnc2c1ncn2-c1ccccc1,-0.17 K
4,CCC(C)(N)CC,0.03 K
5,CC1(C)CC1N (centres unmarked),-0.22 K
6,O=C(CN(Cc1ccco1)C(=O)Cc1coc2cc(O)ccc12)Nc1ccccc1C(F)(F)F,-0.04 K
7,O=C(Nc1cccc(S(=O)(=O)N2CCOCC2)c1)c1cn(-c2ccccc2)nc1-c1ccc(F)cc1,0.25 K
8,COc1cccc(C2C(C(=O)c3cc4ccccc4o3)=C(O)C(=O)N2CCCN2CCOCC2)c1 (centres unmarked),0.08 K
9,Cn1ccnc1C(NCc1csc(-c2ccsc2)n1)c1cccc(F)c1 (centres unmarked),-0.05 K
10,CS(=O)c1ccc(C(=O)Nc2ccccc2NC(=O)N2CCCC2)cc1 (centres unmarked),-0.28 K
11,NC(=O)c1ccc(S(=O)(=O)N2CCN(c3ncnc4ccccc34)CC2)o1,-0.08 K
12,Cc1ccc(N(C)S(=O)(=O)c2cccc(C(=O)N(C)Cc3ccccc3Cl)c2)cc1,-0.24 K
13,C=C(C)CNC(=S)NC(C)c1cccc(NC(=O)c2ccccc2)c1 (centres unmarked),-0.23 K
14,NC(=O)c1c(NC(=O)CSc2nc3sc4c(c3c(=O)n2-c2ccccc2)CCC4)sc2c1CCC2,-0.22 K
15,NC(=O)c1ccc(/C=C/C(=O)N2CCC(C(=O)O)(c3ccccc3)CC2)cc1,-0.03 K
16,CCOC(=O)C1=C(COC(=O)c2sc(-c3ccco3)nc2-c2ccccc2)NC(=O)NC1,-0.11 K
17,COc1ccc(/C=C2/Oc3ccc(Br)cc3C2=O)cc1,0.12 K
18,Fc1ccc(-c2cn3cc(Cl)cc(Cl)c3n2)cc1,-0.08 K
19,Cc1sc(NC(=O)c2cnc3ccccc3n2)nc1-c1ccc(F)c(F)c1,-0.11 K
20,NC(=O)c1cc(NCC(=O)N2CCc3ccccc32)c(F)cc1F,-0.12 K
21,COc1ccc(C2C(C(=O)/C=C/c3ccco3)=C(O)C(=O)N2CCN2CCOCC2)cc1 (centres unmarked),0.06 K
22,Cn1cc(S(=O)(=O)N2CCC(C(=O)NCCOc3ccccc3)CC2)cc1C(N)=O,-0.08 K
23,NC(=O)c1cc(NC(=O)c2ccc(-c3ccccc3Cl)o2)ccc1Cl,-0.21 K
24,CCCCCc1nnc(NC(=O)c2cccc(S(=O)(=O)N(C)c3ccc(OC)cc3)c2)s1,0.22 K

row,Structure (SMILES),TSA(without NAD+) / Primary screening (TSA) / delta Tm (K)
1,COC(=O)c1ccc(C2C(C(=O)c3cccc(OC)c3)=C(O)C(=O)N2CCCN2CCOCC2)cc1 (centres unmarked),-0.08 K
2,NC(=O)C1CCN(c2nc(-c3cccs3)nc3sc4c(c23)CCCC4)CC1,2.58 K
3,CCc1ccc(NC(c2cccnc2)c2ncc[nH]2)cc1CC (centres unmarked),-0.18 K
4,O=C(O)c1cc(/N=C/c2c(O)ccc3ccccc23)ccc1O,-0.05 K
5,CC(CN)CN(C)C (centres unmarked),-0.23 K
6,COc1cc(C(=O)N(C)Cc2ccc(C(N)=O)cc2)cc(OC)c1OC,0.15 K
7,COC(=O)CCC(NC(=O)OC(C)(C)C)C(=O)Nc1cccc(C(N)=O)c1C (centres unmarked),-0.18 K
8,CCSCCOC(=O)c1ccc2[nH]c(C(F)F)nc2c1,-0.04 K
9,CCCC(=O)CN,-0.14 K
10,CCCOc1ccc(C(=O)C2=C(O)C(=O)N(CCCN3CCOCC3)C2c2cccnc2)cc1 (centres unmarked),-0.02 K
11,O=C1CCCN1c1cccc(NS(=O)(=O)c2ccc3nc[nH]c(=O)c3c2)c1,0.09 K
12,CC(C)NCCOCCN,-0.08 K
13,COc1ccc(N(C)S(=O)(=O)c2cccc(C(=O)Nc3ncc(C(N)=O)s3)c2)cc1,0.06 K
14,c1ccc(CN2CCCC2)c(CNc2ncnc3sccc23)c1,0.06 K
15,CC(=O)N1CCCc2cc(S(=O)(=O)N3c4ccccc4CCC3C)ccc21 (centres unmarked),-0.18 K
16,Oc1ccccc1/C=N/c1ccccc1O,-0.13 K
17,O=C(O)c1nn(Cc2ccccc2)c(=O)c2ccccc12,-0.28 K
18,Cc1nc(S)sc1CC(=O)Nc1ccc(F)cc1,-0.11 K
19,COc1cc(C(=O)Nc2cccc(S(=O)(=O)NCc3ccco3)c2)ccc1OCc1ccccc1,0.03 K
20,COc1cccc(C(=O)C2=C(O)C(=O)N(CCCN3CCOCC3)C2c2ccccc2F)c1 (centres unmarked),-0.17 K
21,O=c1[nH]c(S)nc2c1cnn2-c1ccccc1,-0.21 K
22,CC(CNCCS(=O)(=O)C(C)(C)C)c1ccccc1 (centres unmarked),-0.04 K
23,COc1ccc(NC(=O)C(=O)c2c(C)nn(-c3ccccc3)c2C)cc1OCc1cn2ccccc2n1,-0.07 K

# Entries above containing a tert-butyl group, in the order listed:
row,Structure (SMILES),TSA(without NAD+) / Primary screening (TSA) / delta Tm (K)
7,COC(=O)CCC(NC(=O)OC(C)(C)C)C(=O)Nc1cccc(C(N)=O)c1C (centres unmarked),-0.18 K
22,CC(CNCCS(=O)(=O)C(C)(C)C)c1ccccc1 (centres unmarked),-0.04 K
